Reference: patent US20140328840A1, “MARKER AND TARGET FOR RESPONSIVENESS AND RESISTANCE TO CANCER AGENTS” (The Provost, Fellows, Foundation Scholars, and the Other …, priority 2011, published 2014)
Some entries share one result that the patent states for a list of compounds. Some compounds share one range, which may span the group rather than tell each member.

System: SKBR3 cells
Assay: Resistance to HER-targeted drugs after exogenous NmU treatment
Type: cell-based
Settings: SKBR3, exogenous NmU (NmU-25) 48 hours; range over the four drugs

CCOc1cc2ncc(C#N)c(Nc3ccc(OCc4ccccn4)c(Cl)c3)c2cc1NC(=O)/C=C/CN(C)C [Neratinib]
level of resistance induced by exogenous NmU: 1.1-1.3 fold
